Results from patent publication US20260079169A1, “VOLATILE ORGANIC COMPOUNDS AS MARKERS FOR CELLULAR COMMUNICATION” (Technion Research and Development Foundation Limited, priority 2020, published 2026).

How the values were obtained:
[1] = tested on: different-cell pairs of BEAS-2B, A549, H1299, H1975 without physical contact under a mutual headspace; assay: VOCs headspace analysis (ITEX GC-MS) of different-cell pair co-culture headspace groups (Format-3), bulk cell samples; assay type: cell-based, human; settings: bulk 1 × 10^4 cell
[2] = tested on: A549, H1299, H1975 human lung cancer lines and BEAS-2B normal cell line, each cultured alone; assay: VOCs headspace analysis (ITEX GC-MS) of mono-culture groups (Format-1), bulk cell samples 1×10^4 cells; assay type: cell-based; settings: bulk 1 × 10^4 cell

## CC(C)CCCC(C)CCC(C)C (centres unmarked) [VOC69]
[1]; A + B (BEAS-2B + A549)
  VOC level in headspace, area under curve (AUC) normalized by STD AUC: 1.042
[1]; A + C (BEAS-2B + H1299)
  VOC level in headspace, area under curve (AUC) normalized by STD AUC: 0
[1]; A + D (BEAS-2B + H1975)
  VOC level in headspace, area under curve (AUC) normalized by STD AUC: 0
[1]; B + C (A549 + H1299)
  VOC level in headspace, area under curve (AUC) normalized by STD AUC: 0
[1]; B + D (A549 + H1975)
  VOC level in headspace, area under curve (AUC) normalized by STD AUC: 0
[1]; C + D (H1299 + H1975)
  VOC level in headspace, area under curve (AUC) normalized by STD AUC: 0
[2]; A (BEAS-2B) mono-culture
  VOC level in headspace, area under curve (AUC) normalized by STD AUC: 2.016
[2]; B (A549) mono-culture
  VOC level in headspace, area under curve (AUC) normalized by STD AUC: 1.322
[2]; C (H1299) mono-culture
  VOC level in headspace, area under curve (AUC) normalized by STD AUC: 3.717
[2]; D (H1975) mono-culture
  VOC level in headspace, area under curve (AUC) normalized by STD AUC: 0

## CCC(C)CCC(C)CCCCC(C)C (centres unmarked) [VOC70]
[1]; A + B (BEAS-2B + A549)
  VOC level in headspace, area under curve (AUC) normalized by STD AUC: 1.598
[1]; A + C (BEAS-2B + H1299)
  VOC level in headspace, area under curve (AUC) normalized by STD AUC: 2.709
[1]; A + D (BEAS-2B + H1975)
  VOC level in headspace, area under curve (AUC) normalized by STD AUC: 0
[1]; B + C (A549 + H1299)
  VOC level in headspace, area under curve (AUC) normalized by STD AUC: 8.971
[1]; B + D (A549 + H1975)
  VOC level in headspace, area under curve (AUC) normalized by STD AUC: 0
[1]; C + D (H1299 + H1975)
  VOC level in headspace, area under curve (AUC) normalized by STD AUC: 1.423
[2]; A (BEAS-2B) mono-culture
  VOC level in headspace, area under curve (AUC) normalized by STD AUC: 0
[2]; B (A549) mono-culture
  VOC level in headspace, area under curve (AUC) normalized by STD AUC: 5.451
[2]; C (H1299) mono-culture
  VOC level in headspace, area under curve (AUC) normalized by STD AUC: 6.1264
[2]; D (H1975) mono-culture
  VOC level in headspace, area under curve (AUC) normalized by STD AUC: 0

## CCC(C)CCCC(C)CCCC(C)C (centres unmarked) [VOC71]
[1]; A + B (BEAS-2B + A549)
  VOC level in headspace, area under curve (AUC) normalized by STD AUC: 0
[1]; A + C (BEAS-2B + H1299)
  VOC level in headspace, area under curve (AUC) normalized by STD AUC: 0
[1]; A + D (BEAS-2B + H1975)
  VOC level in headspace, area under curve (AUC) normalized by STD AUC: 5.065
[1]; B + C (A549 + H1299)
  VOC level in headspace, area under curve (AUC) normalized by STD AUC: 0
[1]; B + D (A549 + H1975)
  VOC level in headspace, area under curve (AUC) normalized by STD AUC: 3.383
[1]; C + D (H1299 + H1975)
  VOC level in headspace, area under curve (AUC) normalized by STD AUC: 1.027
[2]; A (BEAS-2B) mono-culture
  VOC level in headspace, area under curve (AUC) normalized by STD AUC: 0
[2]; B (A549) mono-culture
  VOC level in headspace, area under curve (AUC) normalized by STD AUC: 0
[2]; C (H1299) mono-culture
  VOC level in headspace, area under curve (AUC) normalized by STD AUC: 0
[2]; D (H1975) mono-culture
  VOC level in headspace, area under curve (AUC) normalized by STD AUC: 5.484

## Cc1ccc(C=Nc2ccc(C)cc2)cc1 [VOC72]
[1]; A + B (BEAS-2B + A549)
  VOC level in headspace, area under curve (AUC) normalized by STD AUC: 4.311
[1]; A + C (BEAS-2B + H1299)
  VOC level in headspace, area under curve (AUC) normalized by STD AUC: 7.3
[1]; A + D (BEAS-2B + H1975)
  VOC level in headspace, area under curve (AUC) normalized by STD AUC: 4.219
[1]; B + C (A549 + H1299)
  VOC level in headspace, area under curve (AUC) normalized by STD AUC: 3.205
[1]; B + D (A549 + H1975)
  VOC level in headspace, area under curve (AUC) normalized by STD AUC: 0
[1]; C + D (H1299 + H1975)
  VOC level in headspace, area under curve (AUC) normalized by STD AUC: 1.891
[2]; A (BEAS-2B) mono-culture
  VOC level in headspace, area under curve (AUC) normalized by STD AUC: 2.104
[2]; B (A549) mono-culture
  VOC level in headspace, area under curve (AUC) normalized by STD AUC: 0
[2]; C (H1299) mono-culture
  VOC level in headspace, area under curve (AUC) normalized by STD AUC: 4.6374
[2]; D (H1975) mono-culture
  VOC level in headspace, area under curve (AUC) normalized by STD AUC: 0

## CC1(c2ccccc2)CNC1 [VOC73]
[1]; A + B (BEAS-2B + A549)
  VOC level in headspace, area under curve (AUC) normalized by STD AUC: 0
[1]; A + C (BEAS-2B + H1299)
  VOC level in headspace, area under curve (AUC) normalized by STD AUC: 6.872
[1]; A + D (BEAS-2B + H1975)
  VOC level in headspace, area under curve (AUC) normalized by STD AUC: 0
[1]; B + C (A549 + H1299)
  VOC level in headspace, area under curve (AUC) normalized by STD AUC: 3.685
[1]; B + D (A549 + H1975)
  VOC level in headspace, area under curve (AUC) normalized by STD AUC: 0
[1]; C + D (H1299 + H1975)
  VOC level in headspace, area under curve (AUC) normalized by STD AUC: 2.033
[2]; A (BEAS-2B) mono-culture
  VOC level in headspace, area under curve (AUC) normalized by STD AUC: 0
[2]; B (A549) mono-culture
  VOC level in headspace, area under curve (AUC) normalized by STD AUC: 0
[2]; C (H1299) mono-culture
  VOC level in headspace, area under curve (AUC) normalized by STD AUC: 8.0569
[2]; D (H1975) mono-culture
  VOC level in headspace, area under curve (AUC) normalized by STD AUC: 0

## CCCC(O)C(CC)COC(=O)C(C)C (centres unmarked) [VOC74]
[1]; A + B (BEAS-2B + A549)
  VOC level in headspace, area under curve (AUC) normalized by STD AUC: 3.298
[1]; A + C (BEAS-2B + H1299)
  VOC level in headspace, area under curve (AUC) normalized by STD AUC: 0
[1]; A + D (BEAS-2B + H1975)
  VOC level in headspace, area under curve (AUC) normalized by STD AUC: 0
[1]; B + C (A549 + H1299)
  VOC level in headspace, area under curve (AUC) normalized by STD AUC: 0.9397
[1]; B + D (A549 + H1975)
  VOC level in headspace, area under curve (AUC) normalized by STD AUC: 0
[1]; C + D (H1299 + H1975)
  VOC level in headspace, area under curve (AUC) normalized by STD AUC: 0
[2]; A (BEAS-2B) mono-culture
  VOC level in headspace, area under curve (AUC) normalized by STD AUC: 0
[2]; B (A549) mono-culture
  VOC level in headspace, area under curve (AUC) normalized by STD AUC: 5.99
[2]; C (H1299) mono-culture
  VOC level in headspace, area under curve (AUC) normalized by STD AUC: 0
[2]; D (H1975) mono-culture
  VOC level in headspace, area under curve (AUC) normalized by STD AUC: 0

## CC(=O)CC(C)CC(C)C (centres unmarked) [VOC75]
[1]; A + B (BEAS-2B + A549)
  VOC level in headspace, area under curve (AUC) normalized by STD AUC: 5.963
[1]; A + C (BEAS-2B + H1299)
  VOC level in headspace, area under curve (AUC) normalized by STD AUC: 7.129
[1]; A + D (BEAS-2B + H1975)
  VOC level in headspace, area under curve (AUC) normalized by STD AUC: 0
[1]; B + C (A549 + H1299)
  VOC level in headspace, area under curve (AUC) normalized by STD AUC: 4.898
[1]; B + D (A549 + H1975)
  VOC level in headspace, area under curve (AUC) normalized by STD AUC: 0
[1]; C + D (H1299 + H1975)
  VOC level in headspace, area under curve (AUC) normalized by STD AUC: 2.595
[2]; A (BEAS-2B) mono-culture
  VOC level in headspace, area under curve (AUC) normalized by STD AUC: 5.927
[2]; B (A549) mono-culture
  VOC level in headspace, area under curve (AUC) normalized by STD AUC: 0
[2]; C (H1299) mono-culture
  VOC level in headspace, area under curve (AUC) normalized by STD AUC: 6.8085
[2]; D (H1975) mono-culture
  VOC level in headspace, area under curve (AUC) normalized by STD AUC: 0

## CC1(C)CCO1 [VOC76]
[1]; A + B (BEAS-2B + A549)
  VOC level in headspace, area under curve (AUC) normalized by STD AUC: 0
[1]; A + C (BEAS-2B + H1299)
  VOC level in headspace, area under curve (AUC) normalized by STD AUC: 5.974
[1]; A + D (BEAS-2B + H1975)
  VOC level in headspace, area under curve (AUC) normalized by STD AUC: 0
[1]; B + C (A549 + H1299)
  VOC level in headspace, area under curve (AUC) normalized by STD AUC: 2.377
[1]; B + D (A549 + H1975)
  VOC level in headspace, area under curve (AUC) normalized by STD AUC: 0
[1]; C + D (H1299 + H1975)
  VOC level in headspace, area under curve (AUC) normalized by STD AUC: 0
[2]; A (BEAS-2B) mono-culture
  VOC level in headspace, area under curve (AUC) normalized by STD AUC: 0
[2]; B (A549) mono-culture
  VOC level in headspace, area under curve (AUC) normalized by STD AUC: 0
[2]; C (H1299) mono-culture
  VOC level in headspace, area under curve (AUC) normalized by STD AUC: 4.9305
[2]; D (H1975) mono-culture
  VOC level in headspace, area under curve (AUC) normalized by STD AUC: 0
